Source: patent US20220047599A1, “COMBINATION THERAPY OF SOLID CANCER” (MOR RESEARCH APPLICATIONS LTD., priority 2018, published 2022)
At least one compound was matched to its structure with a doubt left. Some compounds share one wording; it may come from a single statement.

Experiments:
[1] = system: colon tumor (well differentiated adenocarcinoma); assay: Drug efficacy in colon cancer PDX (RA-419); format: in vivo, NRG mice; conditions: palbociclib 100 mg/kg, sunitinib 50 mg/kg PO 5/week; FIG. 3
[2] = system: colon tumor (metastatic adenocarcinoma with wild-type RAS); assay: Drug efficacy in colon cancer PDX (RA-397); format: in vivo; conditions: for effect on tumor growth: palbociclib 100 mg/kg, sunitinib 50 mg/kg PO 5/week, FIG. 5
Protocol: (§1) Drugs were administered daily for 5 days/week
In a further experimental arrangement, colon tumor (metastatic adenocarcinoma with wild-type RAS) was grown in NRG mice, collected dissociated and implanted in new NRG mice and when reached a size of 60-170 mm^3, mice were assigned to treatment groups as described in Table 9.

[3] = system: Invasive ductal carcinoma (ER positive) clinically resistant to palbociclib; assay: Drug efficacy in breast cancer PDX (RA-334); format: in vivo, NRG mice; conditions: palbociclib 100, sunitinib 50, ribociclib 100, pazopanib 100 mg/kg PO 5/week; FIG. 8
Protocol: as §1
(§2) Survival Analysis using Kaplan-Meier survival function curve was applied for testing the statistical significance of the difference in overall survival between treatment groups by experiment and for all experiments pooled together. The Log-Rank test was used for treatment comparison
Tumor volume was measured.

[4] = system: Triple negative breast cancer (TNBC) tissue; assay: Drug efficacy in breast cancer PDX (RA-336); format: in vivo, NRG mice; conditions: palbociclib 100, sunitinib 50, ribociclib 100, pazopanib 100 mg/kg PO 5/week; FIG. 10
Protocol: as §1, §2
The experiment lasted 45 days. Tumor volume was measured.

[5] = system: Triple negative breast cancer (TNBC) tissue from a different patient; assay: Drug efficacy in breast cancer PDX (RA-179F); format: in vivo, NRG mice; conditions: palbociclib 100 mg/kg, sunitinib 50 mg/kg PO 5/week; 151 days; FIG. 11
Breast cancer tissue = assay: Drug efficacy in breast cancer PDX (RA-405); format: in vivo, NRG mice; conditions: palbociclib 100 mg/kg, sunitinib 50 mg/kg PO 5/week; FIG. 12
[6] = system: poorly differentiated carcinoma from lung; assay: Drug efficacy in lung cancer PDX (RA-388); format: in vivo, NRG mice; conditions: palbociclib 100, sunitinib 50, sorafenib 20 mg/kg PO 5/week; FIG. 14
Protocol: as §1
(§3) Fresh tumor sample of poorly differentiated carcinoma was collected by biopsy from lung and grown in immunocompromised mice. Then the grown tumor cells were collected, dissociated and implanted subcutaneously to NRG mice necks as described in material and methods. […] The experiment lasted 45 days. Tumor volume was measured.

[7] = system: lung adenocarcinoma (KRAS mutation G12V); format: in vivo; conditions: palbociclib 100 mg/kg, sunitinib 50 mg/kg PO 5/week; FIG. 15A
Protocol: as §1
as §3, with “lung adenocarcinoma (KRAS mutation G12V)” for “poorly differentiated carcinoma”

[8] = system: metastatic high grade serous carcinoma with BRCA1 mutation (ovarian cancer); assay: Drug efficacy in ovarian cancer PDX (RA-365); format: in vivo, NRG mice; conditions: palbociclib 100, sunitinib 50, sorafenib 20 mg/kg PO 5/week; FIG. 17
Protocol: as §1
The experiment lasted 172 days. Tumor volume was measured. […] In all groups there were 2-3 mice that removed from study due to ulcer or weakness, starting from day 38.

[9] = system: adenocarcinoma tumor (pancreatic cancer); assay: Drug efficacy in pancreatic cancer PDX (RA-347); format: in vivo; conditions: palbociclib 100 mg/kg, sunitinib 50 mg/kg PO 5/week; FIG. 19
Ewing Sarcoma = assay: Drug efficacy in Ewing sarcoma PDX (RA-220); format: in vivo; conditions: palbociclib 100 mg/kg, sunitinib 50 mg/kg PO 5/week; FIG. 26
appendix carcinoma = assay: Drug efficacy in appendix carcinoma PDX (RA-360); format: in vivo, NRG mice; conditions: palbociclib 100, sunitinib 50, sorafenib 20, ribociclib 100, pazopanib 100 mg/kg PO 5/week; FIGS. 24 and 25

Row | Structure (SMILES) | effect on tumor growth [1] | effect on tumor growth [2] | effect on tumor size [3] | effect on tumor size [4] | effect on tumor size [5] | effect on tumor growth (Breast cancer tissue) | effect on tumor size [6] | effect on tumor size [7] | effect on tumor growth [8] | effect on tumor size [9] | effect on tumor size (Ewing Sarcoma) | tumor status at day 52 ([2]; day 52) | efficacy of combination compared with single drugs (appendix carcinoma)
1 | CC(=O)c1c(C)c2cnc(Nc3ccc(N4CCNCC4)cn3)nc2n(C2CCCC2)c1=O [palbociclib] | attenuate tumor growth | attenuate tumor growth | weak to mild effect on tumor size | weak to mild effect on tumor size | mild effect on tumor size | attenuate tumor growth | weak to mild effect on tumor size | effectively reduce tumor size | no effect on tumor growth | moderate effect on the tumor size | moderate effect on the tumor size |  | 
2 | Cc1ccc(Nc2nccc(N(C)c3ccc4c(C)n(C)nc4c3)n2)cc1S(N)(=O)=O [pazopanib] |  |  | weak to mild effect on tumor size | weak to mild effect on tumor size |  |  |  |  |  |  |  |  | 
3 | CCN(CC)CCNC(=O)c1c(C)[nH]c(/C=C2\C(=O)Nc3ccc(F)cc32)c1C [sunitinib] | little or almost no effect on tumor volume | only moderate effect on tumor volume | weak to mild effect on tumor size | weak to mild effect on tumor size | mild effect on tumor size | attenuate tumor growth | weak to mild effect on tumor size | effectively reduce tumor size | attenuates significantly tumor growth | moderate effect on the tumor size | moderate effect on the tumor size | reached maximal size defined for euthanization of mice | worked better than its combination with palbociclib
